Results are given in words; binding and its absence hold for the method and conditions named. Binding seen in cells or lysates may run through a third protein. Some binding calls cover weakened binding; strength is not graded here.
Molecular target: WT HERG 1a cmyc tagged subunit (human) (UniProt Q12809)
Assay: co-IP; anti-cmyc (9E10) antibody and protein G PLUS-agarose from cleared lysates of transiently co-transfected HEK293 cells, 48 h post transfection; solubilization buffer with 150 mM NaCl, 25 mM Tris-HCl pH 7.4, 0.5% TX100, 4°C; blot probed with anti-C terminal HERG antibody

Q: Which binding does the source give for “WT HERG 1b untagged (from UniProt Q12809-2 1-819)” here?
A: The binding was “binds”.
